We go through 1 molecule from paper PMC5699845.

The chains behind the UniProt entries cited, without tags or fusion partners.
UniProt O00463: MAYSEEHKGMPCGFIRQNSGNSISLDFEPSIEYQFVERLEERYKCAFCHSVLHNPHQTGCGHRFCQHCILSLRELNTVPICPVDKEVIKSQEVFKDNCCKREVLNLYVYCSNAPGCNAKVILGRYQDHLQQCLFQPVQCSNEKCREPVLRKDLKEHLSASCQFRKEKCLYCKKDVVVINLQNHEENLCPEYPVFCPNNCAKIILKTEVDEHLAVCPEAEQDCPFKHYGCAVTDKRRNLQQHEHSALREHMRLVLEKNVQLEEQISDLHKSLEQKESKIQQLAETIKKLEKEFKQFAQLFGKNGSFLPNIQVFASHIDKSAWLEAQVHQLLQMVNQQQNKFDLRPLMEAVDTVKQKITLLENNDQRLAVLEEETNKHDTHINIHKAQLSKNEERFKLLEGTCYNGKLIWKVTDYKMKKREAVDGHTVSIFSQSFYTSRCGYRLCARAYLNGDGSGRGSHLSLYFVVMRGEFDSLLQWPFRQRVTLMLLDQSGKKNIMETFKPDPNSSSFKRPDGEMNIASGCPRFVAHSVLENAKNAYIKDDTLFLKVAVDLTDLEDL

The target in experiment [1] is T1, His-tagged TRAF2 (recombinant) (human) (UniProt Q12933).
T1 sequence: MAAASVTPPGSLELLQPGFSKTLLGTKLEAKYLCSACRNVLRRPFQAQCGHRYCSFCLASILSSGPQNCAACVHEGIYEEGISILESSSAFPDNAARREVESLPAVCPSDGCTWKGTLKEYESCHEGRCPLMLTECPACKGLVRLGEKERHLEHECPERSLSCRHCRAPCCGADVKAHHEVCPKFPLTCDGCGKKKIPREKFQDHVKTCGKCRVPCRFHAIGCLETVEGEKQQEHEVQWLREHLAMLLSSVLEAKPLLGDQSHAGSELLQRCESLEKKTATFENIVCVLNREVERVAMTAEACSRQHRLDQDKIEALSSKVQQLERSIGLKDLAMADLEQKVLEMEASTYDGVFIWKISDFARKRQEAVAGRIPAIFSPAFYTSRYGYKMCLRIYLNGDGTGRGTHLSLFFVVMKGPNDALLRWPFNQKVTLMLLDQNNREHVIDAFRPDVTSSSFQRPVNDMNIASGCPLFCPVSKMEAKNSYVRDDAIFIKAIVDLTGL
Nature of the experiment: pull-down; 10 μg TBK1-Flag and 50 μg His-TRAF2/3/5/6/2C in 1 ml PBS with 20 μl Ni-NTA beads, 4°C, 2 h; washed with PBS containing 30 mM imidazole; immunoblot; both purified.

In experiment [2] the target is His-tagged TRAF5 (recombinant) (human) (UniProt O00463). Described as above.
For experiment [3], the target named is T2, His-tagged TRAF2C (TRAF-C domain of TRAF2, amino acids 349–496) (human) (UniProt Q12933).
T2 sequence: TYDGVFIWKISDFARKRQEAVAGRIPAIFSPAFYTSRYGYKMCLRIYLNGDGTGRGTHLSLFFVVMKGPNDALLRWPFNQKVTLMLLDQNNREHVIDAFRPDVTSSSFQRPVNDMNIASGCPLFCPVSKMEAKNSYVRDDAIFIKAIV
Nature of the experiment: condition: 10 μg TBK1-Flag and 50 μg His-TRAF2C in 1 ml; pull-down; 10 μg TBK1-Flag and 50 μg His-TRAF2/3/5/6/2C in 1 ml PBS with 20 μl Ni-NTA beads, 4°C, 2 h; washed with PBS containing 30 mM imidazole; immunoblot; both purified.

Results are given in words; binding and its absence hold for the method and conditions named. Some entries that bind do so weakly or less than the wild type. Where a sequence is shown, tags or fusion partners need not be part of it.

B1: Recombinant TBK1-Flag (protein, UniProt Q9UHD2 1-729)
chain: MQSTSNHLWLLSDILGQGATANVFRGRHKKTGDLFAIKVFNNISFLRPVDVQMREFEVLKKLNHKNIVKLFAIEEETTTRHKVLIMEFCPCGSLYTVLEEPSNAYGLPESEFLIVLRDVVGGMNHLRENGIVHRDIKPGNIMRVIGEDGQSVYKLTDFGAARELEDDEQFVSLYGTEEYLHPDMYERAVLRKDHQKKYGATVDLWSIGVTFYHAATGSLPFRPFEGPRRNKEVMYKIITGKPSGAISGVQKAENGPIDWSGDMPVSCSLSRGLQVLLTPVLANILEADQEKCWGFDQFFAETSDILHRMVIHVFSLQQMTAHKIYIHSYNTATIFHELVYKQTKIISSNQELIYEGRRLVLEPGRLAQHFPKTTEENPIFVVSREPLNTIGLIYEKISLPKVHPRYDLDGDASMAKAITGVVCYACRIASTLLLYQELMRKGIRWLIELIKDDYNETVHKKTEVVITLDFCIRNIEKTVKVYEKLMKINLEAAELGEISDIHTKLLRLSSSQGTIETSLQDIDSRLSPGGSLADAWAHQEGTHPKDRNVEKLQVLLNCMTEIYYQFKKDKAERRLAYNEEQIHKFDKQKLYYHATKAMTHFTDECVKKYEAFLNKSEEWIRKMLHLRKQLLSLTNQCFDIEEEVSKYQEYTNELQETLPQKMFTASSGIKHTMTPIYPSSNTLVEMTLGMKKLKEEMEGVVKELAENNHILERFGSLTMDGGLRNVDCL
As for B1, the binding entry in experiment [1] is on record as “binds”; in experiment [2], “binds weakly”; in experiment [3] it was “no binding”.
